Screen size: about 290,000 compounds; about 110 (0.038%) were called active. The inconclusive results got no clear call from the source; some entries with a clear call stand among them for comparison. Calls follow the shape of the dose curve; as a rule, active = well fitted inhibition curve with a large enough effect in the polarisation, with a control signal flat (not every such curve was filed as active); inconclusive = small, poorly fitted or top-dose-only effect, or effect the other way, or a change in a side signal; inactive = no such curve, though single readings can be large or run the other way; the % refers to the polarisation. Potencies of inconclusive entries are doubtful fits and often do not repeat. “Side channel” marks fits to a control or component signal instead of the main read-out.
target: Histone-lysine N-methyltransferase 2A (Homo sapiens) (UniProt Q03164); experiment: qHTS Fluorescence Polarization Assay for Inhibitors of MLL CXXC domain - DNA interaction; conditions: MLL-CXXC / FITC-HOXA9 DNA fluorescence polarization; series mostly up to 115 µM
Outline: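 Steps: dispense CXXC domain solution (7 uM) → pin compounds or unlabeled HOX-A9 DNA control → 5 min ambient → add FLSN-HOX-A9 solution (50 nM) → spin → 30 min ambient → fluorescence polarization. Tris pH 7.5/NaCl/DTT/BSA buffer.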
Potency is read from the fitted curve at half-maximal effect.

By UniProt entry, the sequences of proteins in these tests, tags left out.
UniProt Q03164, whole entry, looked up: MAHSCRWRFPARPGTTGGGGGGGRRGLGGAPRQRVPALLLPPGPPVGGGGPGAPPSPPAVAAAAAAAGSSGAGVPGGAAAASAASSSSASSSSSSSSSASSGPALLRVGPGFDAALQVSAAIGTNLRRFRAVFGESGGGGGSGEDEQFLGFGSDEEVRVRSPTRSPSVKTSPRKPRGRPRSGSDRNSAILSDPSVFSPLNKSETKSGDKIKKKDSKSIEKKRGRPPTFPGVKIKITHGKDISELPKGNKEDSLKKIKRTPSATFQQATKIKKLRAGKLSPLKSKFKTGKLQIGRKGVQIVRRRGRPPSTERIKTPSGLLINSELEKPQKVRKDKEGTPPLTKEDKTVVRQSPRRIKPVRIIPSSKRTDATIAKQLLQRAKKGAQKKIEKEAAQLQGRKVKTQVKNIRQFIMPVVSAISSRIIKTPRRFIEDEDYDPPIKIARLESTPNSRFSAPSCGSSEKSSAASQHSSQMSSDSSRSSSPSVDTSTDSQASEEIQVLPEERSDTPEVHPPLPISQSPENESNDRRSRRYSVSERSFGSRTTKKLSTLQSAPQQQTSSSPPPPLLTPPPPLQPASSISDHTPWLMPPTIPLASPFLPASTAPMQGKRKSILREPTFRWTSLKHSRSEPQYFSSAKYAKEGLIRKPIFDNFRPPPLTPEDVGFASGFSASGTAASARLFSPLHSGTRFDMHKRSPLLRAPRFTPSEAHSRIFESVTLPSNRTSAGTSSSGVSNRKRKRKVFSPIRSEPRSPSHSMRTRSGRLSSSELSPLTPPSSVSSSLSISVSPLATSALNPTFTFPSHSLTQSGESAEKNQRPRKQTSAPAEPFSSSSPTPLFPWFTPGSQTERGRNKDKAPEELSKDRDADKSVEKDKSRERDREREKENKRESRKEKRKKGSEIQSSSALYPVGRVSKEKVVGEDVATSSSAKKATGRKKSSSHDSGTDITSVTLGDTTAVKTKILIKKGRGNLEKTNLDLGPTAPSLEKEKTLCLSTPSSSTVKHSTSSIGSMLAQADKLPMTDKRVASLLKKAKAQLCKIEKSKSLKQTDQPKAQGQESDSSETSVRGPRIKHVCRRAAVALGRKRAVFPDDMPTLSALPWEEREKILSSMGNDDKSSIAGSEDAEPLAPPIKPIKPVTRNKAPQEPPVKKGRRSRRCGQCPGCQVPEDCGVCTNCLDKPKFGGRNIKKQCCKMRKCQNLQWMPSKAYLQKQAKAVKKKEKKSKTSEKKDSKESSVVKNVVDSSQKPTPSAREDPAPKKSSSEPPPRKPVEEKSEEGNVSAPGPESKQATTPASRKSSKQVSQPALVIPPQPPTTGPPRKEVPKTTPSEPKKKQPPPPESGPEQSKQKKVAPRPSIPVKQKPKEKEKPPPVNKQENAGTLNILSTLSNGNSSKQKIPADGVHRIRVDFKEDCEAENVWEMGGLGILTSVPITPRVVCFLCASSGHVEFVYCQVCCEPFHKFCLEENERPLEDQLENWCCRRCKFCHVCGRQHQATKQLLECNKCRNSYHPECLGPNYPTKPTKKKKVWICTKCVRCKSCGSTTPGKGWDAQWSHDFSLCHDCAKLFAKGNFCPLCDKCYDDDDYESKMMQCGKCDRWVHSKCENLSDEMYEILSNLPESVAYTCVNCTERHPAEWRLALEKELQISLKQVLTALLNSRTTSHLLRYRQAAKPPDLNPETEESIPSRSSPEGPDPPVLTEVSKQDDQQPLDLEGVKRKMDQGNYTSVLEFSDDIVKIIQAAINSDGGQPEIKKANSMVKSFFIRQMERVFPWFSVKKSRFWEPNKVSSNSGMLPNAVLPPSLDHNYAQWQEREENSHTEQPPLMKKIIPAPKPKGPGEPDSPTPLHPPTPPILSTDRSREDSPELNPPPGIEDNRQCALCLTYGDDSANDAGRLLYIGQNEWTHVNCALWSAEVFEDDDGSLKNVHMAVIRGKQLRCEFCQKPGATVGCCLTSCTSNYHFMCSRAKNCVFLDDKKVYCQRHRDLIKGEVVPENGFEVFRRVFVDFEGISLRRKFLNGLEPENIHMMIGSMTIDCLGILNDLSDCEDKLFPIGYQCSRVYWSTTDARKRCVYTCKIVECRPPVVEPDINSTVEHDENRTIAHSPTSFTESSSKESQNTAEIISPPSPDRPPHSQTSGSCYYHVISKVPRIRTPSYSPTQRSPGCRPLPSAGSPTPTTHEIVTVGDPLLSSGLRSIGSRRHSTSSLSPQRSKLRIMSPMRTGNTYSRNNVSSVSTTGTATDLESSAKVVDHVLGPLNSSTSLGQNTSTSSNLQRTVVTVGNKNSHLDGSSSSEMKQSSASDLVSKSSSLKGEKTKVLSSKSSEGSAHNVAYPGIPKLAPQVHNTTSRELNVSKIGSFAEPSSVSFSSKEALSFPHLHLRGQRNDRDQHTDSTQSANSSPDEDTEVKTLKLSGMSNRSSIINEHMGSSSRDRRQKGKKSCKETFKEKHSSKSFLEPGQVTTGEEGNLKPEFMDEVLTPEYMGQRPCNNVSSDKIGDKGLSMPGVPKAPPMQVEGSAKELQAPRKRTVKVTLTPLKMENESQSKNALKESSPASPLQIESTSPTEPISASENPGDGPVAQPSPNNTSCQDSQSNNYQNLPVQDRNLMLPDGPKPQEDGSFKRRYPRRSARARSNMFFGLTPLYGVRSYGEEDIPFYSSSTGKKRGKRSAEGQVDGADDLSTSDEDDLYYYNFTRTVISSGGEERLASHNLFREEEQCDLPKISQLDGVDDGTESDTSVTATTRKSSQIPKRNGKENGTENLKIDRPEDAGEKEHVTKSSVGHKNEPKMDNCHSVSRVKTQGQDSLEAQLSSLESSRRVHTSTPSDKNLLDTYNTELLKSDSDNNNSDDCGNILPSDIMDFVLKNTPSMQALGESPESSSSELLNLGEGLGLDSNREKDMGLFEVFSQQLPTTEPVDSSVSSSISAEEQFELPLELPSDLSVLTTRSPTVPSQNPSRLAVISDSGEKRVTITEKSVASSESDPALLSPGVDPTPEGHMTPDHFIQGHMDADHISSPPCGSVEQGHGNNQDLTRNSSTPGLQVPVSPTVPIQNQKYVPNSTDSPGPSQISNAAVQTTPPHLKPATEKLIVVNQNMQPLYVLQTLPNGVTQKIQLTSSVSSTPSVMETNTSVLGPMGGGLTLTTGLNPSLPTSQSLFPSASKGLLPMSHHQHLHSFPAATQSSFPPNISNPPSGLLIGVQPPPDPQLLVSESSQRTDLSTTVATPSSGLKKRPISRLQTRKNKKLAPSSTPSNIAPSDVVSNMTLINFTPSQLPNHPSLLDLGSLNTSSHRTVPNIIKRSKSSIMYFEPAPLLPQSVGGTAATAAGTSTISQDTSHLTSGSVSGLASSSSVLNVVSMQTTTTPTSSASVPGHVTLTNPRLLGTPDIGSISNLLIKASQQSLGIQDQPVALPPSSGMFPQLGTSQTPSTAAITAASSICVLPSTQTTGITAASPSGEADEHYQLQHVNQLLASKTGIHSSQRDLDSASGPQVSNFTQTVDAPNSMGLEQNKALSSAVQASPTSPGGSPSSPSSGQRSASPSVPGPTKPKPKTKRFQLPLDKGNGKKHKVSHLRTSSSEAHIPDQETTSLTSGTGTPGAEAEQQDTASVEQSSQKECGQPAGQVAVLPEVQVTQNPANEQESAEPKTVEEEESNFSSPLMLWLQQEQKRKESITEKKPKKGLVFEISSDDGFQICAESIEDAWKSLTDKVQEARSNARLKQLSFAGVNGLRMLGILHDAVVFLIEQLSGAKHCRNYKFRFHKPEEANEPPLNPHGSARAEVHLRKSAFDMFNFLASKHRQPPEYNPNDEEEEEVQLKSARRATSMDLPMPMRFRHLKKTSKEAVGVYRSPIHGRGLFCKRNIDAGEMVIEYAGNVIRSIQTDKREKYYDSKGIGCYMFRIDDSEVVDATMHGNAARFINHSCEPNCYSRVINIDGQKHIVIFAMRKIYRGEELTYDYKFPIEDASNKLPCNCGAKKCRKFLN

| SMILES | Potency |
| --- | --- |
| COc1ccc(/C=C(\C#N)c2n[nH]c(Cn3cncn3)n2)cc1 | inconclusive: 39.8 µM [inhibitor, partial curve] |
| NC(=O)Cc1ccc(Nc2nnc(-c3ccc(O)cc3)c3ccccc23)cc1 | inactive |
| CC1CC1c1ccc(/C=C(\C#N)C(=O)Nc2ccc(Cl)cc2)o1 (configuration not stated) | inconclusive: 63.1 µM [inhibitor, single point] |
| O=C(O)c1ccc(-c2nnc(-c3cccc(Br)c3)o2)cc1 | inconclusive: 39.8 µM [fluorescent, side channel, single point] |
| COC(=O)c1ccc(/C=C(\C#N)C(=O)NC(C)c2ccccc2)cc1 (configuration not stated) | inconclusive: 10 µM [inhibitor, single point] |
| CCN(CC)c1cc2nc(C)n(Cc3ccccc3)c(=O)c2cc1NC(=O)C1CC1 | inconclusive: 15.8 µM [quencher, side channel, partial curve, poor fit] |
| CCOC(=O)Cc1csc(NC(=O)C(C)Oc2ccc3c(C)cc(=O)oc3c2)n1 (configuration not stated) | inconclusive: 63.1 µM [fluorescent, side channel, single point] |
| Cc1ccccc1Nc1c(-c2ccc(N3CCOCC3)cc2)nc2ncccn12 | inactive |
| Cc1ccc(OCC(=O)NCCN2CCCC2)cc1 | inconclusive: 14.1 µM [quencher, side channel, single point] |
| COc1cc([N+](=O)[O-])ccc1NC(=O)C[n+]1cccc(C(C)=O)c1 | inconclusive: 6.31 µM [fluorescent, side channel, partial curve] |
| COc1ccc(CCN2CC(C(=O)NCCN3CCCC3=O)CCC2=O)cc1 (configuration not stated) | inconclusive: 12.6 µM [fluorescent, single point] |
| Cc1cc(C)c(S(=O)(=O)c2ccccc2F)c(=O)[nH]1 | inconclusive: 70.8 µM [fluorescent, side channel, single point] |
| CCOc1ccc(CC(=O)NNC(=S)Nc2ccccc2)cc1Br | inconclusive: 44.7 µM [fluorescent, side channel, single point] |
| O=C(O)CSc1nnc(-c2ccc(Cl)cc2)n1-c1ccccc1 | inactive |
| Cc1cc(C)n2c(-c3ccccc3Cl)nnc2n1 | inactive |
| COc1cc(S(=O)(=O)N2CCN(Cc3ccccc3)CC2)ccc1Br | inactive |
| Cc1ccc(-c2nc3ccccc3o2)cc1NC(=S)NC(=O)c1cc2ccccc2o1 | inactive |
| O=C(O)Cc1cc(C(=O)Nc2ccc(Br)cc2)sc1-c1ccccc1 | inactive |
| NS(=O)(=O)c1ccc(NC(=O)c2ccc3c(c2)CCN3S(=O)(=O)c2ccccc2)cc1 | inconclusive: 15.8 µM [quencher, side channel, single point] |
| C1CCN2C[C@@H]3C[C@@H](CN4CCCC[C@H]34)[C@H]2C1 | inactive |
| Cc1ccc(-n2c(C)nnc2SCC(=O)NNC(=O)c2ccco2)cc1 | inconclusive: 89.1 µM [fluorescent, side channel, single point] |

By substructure: the entries above containing a furan ring, fused or not (three)

| SMILES | Potency |
| --- | --- |
| CC1CC1c1ccc(/C=C(\C#N)C(=O)Nc2ccc(Cl)cc2)o1 (configuration not stated) | inconclusive: 63.1 µM [inhibitor, single point] |
| Cc1ccc(-c2nc3ccccc3o2)cc1NC(=S)NC(=O)c1cc2ccccc2o1 | inactive |
| Cc1ccc(-n2c(C)nnc2SCC(=O)NNC(=O)c2ccco2)cc1 | inconclusive: 89.1 µM [fluorescent, side channel, single point] |

Remaining list, next part:

| SMILES | Potency |
| --- | --- |
| Cc1ccc2[nH]c(=O)c(CNC(C)(C)C)cc2c1 | inactive |
| CSc1nnc(NC(=O)c2nc(S(=O)(=O)Cc3ccccc3)ncc2Cl)s1 | inconclusive: 5.62 µM [inhibitor, partial curve] |
| CCCC(=Nc1ccc(N)cc1)C1=C(O)C(C(=O)OC)C(C)(C)CC1=O (configuration not stated) | inactive |
| CCOC(=O)C1=C(C)Nc2ccccc2N=C1NC(=O)/C=C/c1ccc(OC)cc1OC | inconclusive: 39.8 µM [fluorescent, side channel, partial curve] |
| COC(=O)C(NC(C)=O)(Nc1sc2c(c1C(N)=O)CCCC2)C(F)(F)F (configuration not stated) | inactive |
| COC(=O)\C(C(C)=O)=C(/C=C/C=C/C=C/N(C)C)N(C)C | inconclusive: 39.8 µM [fluorescent, side channel, partial curve] |
| CN(C)S(=O)(=O)NCCNc1ccc(C(F)(F)F)cc1[N+](=O)[O-] | inconclusive: 89.1 µM [quencher, side channel, single point] |
| Cc1cc[n+](-c2[nH]c(=O)sc2/C=N/NC([S-])=Nc2ccccc2)cc1C | inconclusive: 63.1 µM [inhibitor, single point] |
| CCN(CC)c1ccc(NC(=O)COC(=O)c2cccs2)cc1 | inactive |
| O=C1/C(=C/c2ccc(O)cc2)SC(=S)N1Cc1cccnc1 | inconclusive: 5.01 µM [fluorescent, side channel, full curve] |
| CC1CCCN(Cc2c(O)ccc3c(=O)c(-c4nc5ccccc5s4)c(N)oc23)C1 (configuration not stated) | inconclusive: 31.6 µM [quencher, side channel, partial curve] |
| O=C(O)Cn1ccc2ccccc21 | inconclusive: 70.8 µM [fluorescent, side channel, single point] |
| O=C(OCC(=O)c1c[nH]c2ccccc12)c1ccc([N+](=O)[O-])s1 | inconclusive: 35.5 µM [inhibitor, single point] |
| Cc1ccc(C)c(OCc2nc(-c3cccnc3)no2)c1 | inconclusive: 70.8 µM [inhibitor, single point] |
| O=C(NCc1ccccn1)c1ccc2nc(-c3ccco3)c(-c3ccco3)nc2c1 | inconclusive: 39.8 µM [inhibitor, partial curve] |
| CCOc1cc(/C=N/NC(=O)CN(CCc2ccccc2)S(=O)(=O)c2ccc(NC(C)=O)cc2)ccc1O | inconclusive: 10 µM [inhibitor, single point] |
| CCN(CCN1CCCC1)C(=O)C1CCC(=O)N(CCCN2CCOCC2)C1 (configuration not stated) | inconclusive: 12.6 µM [quencher, side channel, single point] |
| Cc1ccc(CNC(=O)/C(C#N)=C\c2ccc(N(C)C)cc2)cc1 | inconclusive: 31.6 µM [fluorescent, side channel, partial curve] |
| C[C@H](C(=O)NCc1ccccc1)C(=O)c1ccccc1 | inconclusive: 15.8 µM [fluorescent, single point] |
| Cc1ccc(NC(=S)NC(=O)c2sc3ccccc3c2Cl)c(C(=O)O)c1 | inconclusive: 39.8 µM [inhibitor, single point] |
| CCOc1cc(NC(=S)NCC2CCCO2)c(OCC)cc1NC(=O)c1ccc(F)cc1 (configuration not stated) | inconclusive: 100 µM [inhibitor, partial curve, poor fit] |

| SMILES | Potency |
| --- | --- |
| CC(O)c1cccc(N=Cc2ccc3ccccc3c2O)c1 (configuration not stated) | inconclusive: 63.1 µM [fluorescent, single point] |
| COCCN1C(=S)N[C@@H](c2cccc(F)c2)C(C(=O)OC)=C1C | inconclusive: 22.4 µM [quencher, side channel, partial curve] |
| Cc1cc(C)c(S(=O)(=O)NCCOc2ccccc2)c(C)c1-n1cnnn1 | inconclusive: 1.41 µM [fluorescent, side channel, full curve] |
| O=C(CC1CCCC1)Nc1ccc(Br)cc1 | inconclusive: 15.8 µM [fluorescent, side channel, single point] |
| Cc1ccccc1NC(NC(=O)OCCn1c([N+](=O)[O-])cnc1C)C(Cl)(Cl)Cl (configuration not stated) | inactive |
| COc1ccc(C[C@@H]2CN3C(=NC[C@@H]3C)N2C[C@H](C)NC(=O)CCC2CCCCC2)cc1 | inconclusive: 89.1 µM [inhibitor, single point] |
| Oc1cccc2ccc(/C=C/c3c(F)cccc3Cl)nc12 | inconclusive: 35.5 µM [fluorescent, side channel, partial curve] |
| Cc1cc(=O)oc2c(CN3CCC(C)CC3)c(O)c(Cl)cc12 | inconclusive: 89.1 µM [inhibitor, single point] |
| N#Cc1c(-c2cccs2)cc(-c2ccccn2)nc1N | inactive |
| Oc1c(N=Nc2ccccn2)ccc2ccccc12 | inconclusive: 14.1 µM [quencher, side channel, partial curve] |
| CCOC(=O)c1nc(C)n(-c2ccc(Cl)cc2)n1 | inconclusive: 2.82 µM [fluorescent, side channel, full curve, poor fit] |
| CCCn1cc(SCC(=O)NCc2ccc3c(c2)OCO3)c2ccccc21 | inconclusive: 31.6 µM [fluorescent, side channel, partial curve] |
| N#CC1=C(N)NC(=S)C(C(N)=O)C1c1ccc(Cl)cc1Cl (configuration not stated) | inconclusive: 70.8 µM [fluorescent, side channel, single point] |
| CC1CN(C(=O)CS(=O)(=O)Cc2ccc(Cl)cc2)CC(C)O1 (configuration not stated) | inconclusive: 14.1 µM [fluorescent, side channel, single point] |
| CCN(CCNC(=O)Nc1ccc(Cl)cc1)c1ccccc1 | inconclusive: 10 µM [inhibitor, single point] |
| COc1ccc(OC)c(Nc2nc(NCc3ccco3)c3ccccc3n2)c1 | inconclusive: 31.6 µM [quencher, partial curve] |
| N#Cc1c(SCC(=O)Nc2ccc(C(F)(F)F)cc2)sc2c(O)cc(=O)[nH]c12 | inactive |
| COc1ccc(-c2nnc(SCC(=O)NCc3cccs3)n2CC(C)C)cc1 | inconclusive: 15.8 µM [quencher, side channel, single point] |
| CCCCCCCC(=O)N/N=C(/C)c1c(O)cc(C)oc1=O | inconclusive: 70.8 µM [fluorescent, side channel, single point] |
| CCOC(=O)N1CCN(CC(=O)N2c3ccccc3CCc3ccccc32)CC1 | inconclusive: 35.5 µM [quencher, side channel, single point] |

— PubChem BioAssay AID2662 (National Center for Advancing Translational Sciences (NCATS), 2010)
